# According to the supplement of paper PMC8728848:
# The other results are listed elsewhere or left out.
# B1: SHCBP1-GST (Homo sapiens), Q8NEM2 (protein)
# chain: MADGSLTGGGLEAAAMAPERMGWAVEQELASLEKGLFQDEDSCSDCSYRDKPGSSLQSFMPEGKTFFPEIFQTNQLLFYERFRAYQDYILADCKASEVQEFTAEFLEKVLEPSGWRAVWHTNVFKVLVEITDVDFAALKAVVRLAEPYLCDSQVSTFTMECMKELLDLKEHRLPLQELWVVFDDSGVFDQTALAIEHVRFFYQNIWRSWDEEEEDEYDYFVRCVEPRLRLHYDILEDRVPSGLIVDYHNLLSQCEESYRKFLNLRSSLSNCNSDSEQENISMVEGLKLYSEMEQLKQKLKLIENPLLRYVFGYQKNSNIQAKGVRSSGQKITHVVSSTMMAGLLRSLLTDRLCQEPGEEEREIQFHSDPLSAINACFEGDTVIVCPGHYVVHGTFSIADSIELEGYGLPDDIVIEKRGKGDTFVDCTGADIKISGIKFVQHDAVEGILIVHRGKTTLENCVLQCETTGVTVRTSAEFLMKNSDLYGAKGAGIEIYPGSQCTLSDNGIHHCKEGILIKDFLDEHYDIPKISMVNNIIHNNEGYGVVLVKPTIFSDLQENAEDGTEENKALKIQTSGEPDVAERVDLEELIECATGKMELCARTDPSEQVEGNCEIVNELIAASTQKGQIKKKRLSELGITQADDNLMSQEMFVGIVGNQFKWNGKGSFGTFLF
# Columns and labels:
# Test in all cases: glycan array binding signal (z-score within array); higher = stronger binding
# Conditions in all cases: glycan notation: IUPAC condensed, linker removed
# [1] = biological target: Man(a1-2)Man(a1-3)[Man(a1-2)Man(a1-6)]Man
# Summary of the method: (§1)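 The binding signal is a Z-score computed within each array. Data were drawn from 3228 arrays in the Consortium for Functional Glycomics database, restricted to those with a known protein sequence. Scores were averaged over arrays of the same protein sequence at different concentrations or buffers, and over linkers, and negative values can be taken as non-binding.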
# [2] = biological target: Man(a1-2)Man(a1-3)[Man(a1-2)Man(a1-6)]Man(a1-6)[Man(a1-2)Man(a1-2)Man(a1-3)]Man
# Summary of the method: as §1
# [3] = biological target: Man(a1-2)Man(a1-3)[Man(a1-2)Man(a1-6)]Man(a1-6)[Man(a1-2)Man(a1-2)Man(a1-3)]Man(b1-4)GlcNAc(b1-4)GlcNAc
# Summary of the method: as §1
# [4] = biological target: Man(a1-2)Man(a1-3)[Man(a1-6)]Man(a1-6)[Man(a1-2)Man(a1-3)]Man(b1-4)GlcNAc(b1-4)GlcNAc
# Summary of the method: as §1
# [5] = biological target: Man(a1-2)Man(a1-6)[Man(a1-3)]Man(a1-6)[Man(a1-2)Man(a1-2)Man(a1-3)]Man
# Summary of the method: as §1
# [6] = biological target: Man(a1-2)Man(a1-6)[Man(a1-3)]Man(a1-6)[Man(a1-2)Man(a1-2)Man(a1-3)]Man(b1-4)GlcNAc(b1-4)GlcNAc
# Summary of the method: as §1
# Man(a1-3)[Man(a1-6)]Man = biological target: Man(a1-3)[Man(a1-6)]Man
# Summary of the method: as §1
# [7] = biological target: Man(a1-3)[Man(a1-6)]Man(a1-6)[Man(a1-2)Man(a1-3)]Man(b1-4)GlcNAc(b1-4)GlcNAc
# Summary of the method: as §1
# [8] = biological target: Man(a1-3)[Man(a1-6)]Man(a1-6)[Man(a1-3)]Man
# Summary of the method: as §1
# [9] = biological target: Man(a1-3)[Man(a1-6)]Man(a1-6)[Man(a1-3)]Man(b1-4)GlcNAc(b1-4)GlcNAc
# Summary of the method: as §1
# [10] = biological target: Man(a1-3)[Man(a1-6)]Man(b1-4)GlcNAc(b1-4)GlcNAc
# Summary of the method: as §1
# [11] = biological target: Man(a1-3)[Man(a1-6)]Man(b1-4)GlcNAc(b1-4)[Fuc(a1-6)]GlcNAc
# Summary of the method: as §1
# Man(a1-6)Man = biological target: Man(a1-6)Man
# Summary of the method: as §1
# Man(b1-4)GlcNAc = biological target: Man(b1-4)GlcNAc
# Summary of the method: as §1
# MurNAc(b1-4)GlcNAc = biological target: MurNAc(b1-4)GlcNAc
# Summary of the method: as §1
# Neu5Ac(a2-3)Gal = biological target: Neu5Ac(a2-3)Gal
# Summary of the method: as §1
# [12] = biological target: Neu5Ac(a2-3)Gal(b1-3)GalNAc
# Summary of the method: as §1
# [13] = biological target: Neu5Ac(a2-3)Gal(b1-3)GalNAc(b1-3)Gal(a1-4)Gal(b1-4)Glc
# Summary of the method: as §1
# [14] = biological target: Neu5Ac(a2-3)Gal(b1-3)GalNAc(b1-4)Gal(b1-4)Glc
# Summary of the method: as §1
# [15] = biological target: Neu5Ac(a2-3)Gal(b1-3)GalNAc(b1-4)[Neu5Ac(a2-3)]Gal(b1-4)Glc
# Summary of the method: as §1
# [16] = biological target: Neu5Ac(a2-3)Gal(b1-3)GalNAc(b1-4)[Neu5Ac(a2-8)Neu5Ac(a2-3)]Gal(b1-4)Glc
# Summary of the method: as §1
# [17] = biological target: Neu5Ac(a2-3)Gal(b1-3)GalNAc6S
# Summary of the method: as §1
# [18] = biological target: Neu5Ac(a2-3)Gal(b1-3)GlcNAc
# Summary of the method: as §1
# [19] = biological target: Neu5Ac(a2-3)Gal(b1-3)GlcNAc(b1-2)Man
# Summary of the method: as §1
# [20] = biological target: Neu5Ac(a2-3)Gal(b1-3)GlcNAc(b1-2)Man(a1-3)[GlcNAc(b1-4)][Neu5Ac(a2-3)Gal(b1-3)GlcNAc(b1-2)Man(a1-6)]Man(b1-4)GlcNAc(b1-4)GlcNAc
# Summary of the method: as §1
# [21] = biological target: Neu5Ac(a2-3)Gal(b1-3)GlcNAc(b1-2)Man(a1-3)[Neu5Ac(a2-3)Gal(b1-3)GlcNAc(b1-2)Man(a1-6)]Man(b1-4)GlcNAc(b1-4)GlcNAc
# Summary of the method: as §1
# [22] = biological target: Neu5Ac(a2-3)Gal(b1-3)GlcNAc(b1-2)[Neu5Ac(a2-3)Gal(b1-3)GlcNAc(b1-4)]Man(a1-6)[Neu5Ac(a2-3)Gal(b1-3)GlcNAc(b1-2)Man(a1-3)]Man(b1-4)GlcNAc(b1-4)GlcNAc
# Summary of the method: as §1
# [23] = biological target: Neu5Ac(a2-3)Gal(b1-3)GlcNAc(b1-3)Gal(b1-3)GlcNAc
# Summary of the method: as §1
# [24] = biological target: Neu5Ac(a2-3)Gal(b1-3)GlcNAc(b1-3)Gal(b1-4)GlcNAc
# Summary of the method: as §1
# [25] = biological target: Neu5Ac(a2-3)Gal(b1-3)GlcNAc(b1-3)GalNAc
# Summary of the method: as §1
binder,measurement,setting,value
B1,glycan array binding signal (z-score),[1],-0.43
same,glycan array binding signal (z-score),[2],-0.707
same,glycan array binding signal (z-score),[3],-0.586
same,glycan array binding signal (z-score),[4],-0.574
same,glycan array binding signal (z-score),[5],0.11
same,glycan array binding signal (z-score),[6],-0.72
same,glycan array binding signal (z-score),Man(a1-3)[Man(a1-6)]Man,0.387
same,glycan array binding signal (z-score),[7],-0.061
same,glycan array binding signal (z-score),[8],-0.016
same,glycan array binding signal (z-score),[9],0.695
same,glycan array binding signal (z-score),[10],-0.524
same,glycan array binding signal (z-score),[11],-0.42
same,glycan array binding signal (z-score),Man(a1-6)Man,-0.285
same,glycan array binding signal (z-score),Man(b1-4)GlcNAc,0.293
same,glycan array binding signal (z-score),MurNAc(b1-4)GlcNAc,-0.39
same,glycan array binding signal (z-score),Neu5Ac(a2-3)Gal,0.658
same,glycan array binding signal (z-score),[12],-0.322
same,glycan array binding signal (z-score),[13],-0.108
same,glycan array binding signal (z-score),[14],-0.427
same,glycan array binding signal (z-score),[15],0.166
same,glycan array binding signal (z-score),[16],-0.123
same,glycan array binding signal (z-score),[17],-0.959
same,glycan array binding signal (z-score),[18],0.028
same,glycan array binding signal (z-score),[19],0.247
same,glycan array binding signal (z-score),[20],-0.681
same,glycan array binding signal (z-score),[21],-0.428
same,glycan array binding signal (z-score),[22],1.25
same,glycan array binding signal (z-score),[23],-0.82
same,glycan array binding signal (z-score),[24],-0.255
same,glycan array binding signal (z-score),[25],-0.12

# Rewritten tab-delimited: entries from further up
binder	measurement	setting	value
B1	glycan array binding signal (z-score)	[6]	-0.72
same	glycan array binding signal (z-score)	[10]	-0.524
